Patent US20060276387A1 (published 2006)
No constants are given. Whether binding was seen depends on the method and setting. In cells and extracts the contact can be indirect. Some results given as binding are weak or reduced against the parent protein; the word gives no strength. Where a sequence is shown, tags or fusion partners need not be part of it. Each block holds one molecule with its values, some of them ahead of it.

By UniProt entry, the sequences of proteins in these tests, tags left out. Where a name states a change or a piece, a line headed by the entry shows the natural chain unless it says otherwise.
UniProt P15884: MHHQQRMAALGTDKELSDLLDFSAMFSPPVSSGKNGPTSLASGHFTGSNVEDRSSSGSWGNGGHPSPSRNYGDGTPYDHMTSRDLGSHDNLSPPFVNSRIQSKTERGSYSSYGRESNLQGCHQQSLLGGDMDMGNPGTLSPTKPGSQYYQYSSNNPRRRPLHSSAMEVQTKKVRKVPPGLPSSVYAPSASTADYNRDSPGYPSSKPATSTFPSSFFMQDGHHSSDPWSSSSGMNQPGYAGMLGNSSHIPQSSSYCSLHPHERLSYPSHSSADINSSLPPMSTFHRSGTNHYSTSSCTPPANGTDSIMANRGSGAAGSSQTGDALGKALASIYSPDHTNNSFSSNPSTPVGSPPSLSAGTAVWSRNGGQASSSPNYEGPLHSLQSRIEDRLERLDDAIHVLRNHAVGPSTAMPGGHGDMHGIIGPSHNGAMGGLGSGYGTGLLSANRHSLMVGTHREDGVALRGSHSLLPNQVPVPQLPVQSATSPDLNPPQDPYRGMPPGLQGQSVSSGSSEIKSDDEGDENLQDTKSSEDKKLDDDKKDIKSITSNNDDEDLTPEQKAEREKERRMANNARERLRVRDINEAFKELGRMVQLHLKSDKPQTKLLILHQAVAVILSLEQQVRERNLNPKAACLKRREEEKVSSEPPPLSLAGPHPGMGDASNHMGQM

How the values were obtained:
[1] = target: N-terminus GST-fused IPF1 (GST-IPF1), human insulin promoter factor 1 (human); test: GST pull-down of Example 2, told again in Example 3
[2] = target: N-terminus GST-fused IPF1 (GST-IPF1), human insulin promoter factor 1 (human); test: GST pull-down with GST-IPF1, 35S-labeled in vitro translated protein, autoradiography

B1: human distal-less homeobox 4 (DLX4), N-terminus HA-tagged (other, not shown: small tags and cut ends)
chain: MTSLPCPLPGRDASKAVFPDLAPVPSVAAAYPLGLSPTTAASPNLSYSRPYGHLLSYPYTEPANPGDSYLSCQQPAALSQPLCGPAEHPQELEADSEKPRLSPEPSERRPQAPAKKLRKPRTIYSSLQLQHLNQRFQHTQYLALPERAQLAAQLGLTQTQVKIWFQNKRSKYKKLLKQNSGGQEGDFPGRTFSVSPCSPPLPSLWDLPKAGTLPTSGYGNSFGAWYQHHSSDVLASPQMM
modifications: 35S-methionine-labeled (in the pull-down)
binding [1]: binds
binding [2]: binds

B2: human thymopoietin (TMPO), N-terminus HA-tagged (protein, not shown: small tags and cut ends)
chain: MPEFLEDPSVLTKDKLKSELVANNVTLPAGEQRKDVYVQLYLQHLTARNRPPLPAGTNSKGPPDFSSDEEREPTPVLGSGAAAAGRSRAAVGRKATKKTDKPRQEDKDDLDVTELTNEDLLDQLVKYGVNPGPIVGTTRKLYEKKLLKLREQGTESRSSTPLPTISSSAENTRQNGSNDSDRYSDNEEGKKKEHKKVKSTRDIVPFSELGTTPSGGGFFQGISFPEISTRPPLGSTELQAAKKVHTSKGDLPREPLVATNLPGRGQLQKLASERNLFISCKSSHDRCLEKSSSSSSQPEHSAMLVSTAASPSLIKETTTGYYKDIVENICGREKSGIQPLCPERSHISDQSPLSSKRKALEESESSQLISPPLAQAIRDYVNSLLVQGGVGSLPGTSNSMPPLDVENIQKRIDQSKFQETEFLSPPRKVPRLSEKSVEERDSGSFVAFQNIPGSELMSSFAKTVVSHSLTTLGLEVAKQSQHDKIDASELSFPFHESILKVIEEEWQQVDRQLPSLACKYPVSSREATQILSVPKVDDEILGFISEATPLGGIQAASTESCNQQLDLALCRAYEAAASALQIATHTAFVAKAMQADISQAAQILSSDPSRTHQALGILSKTYDAASYICEAAFDEVKMAAHTMGNATVGRRYLWLKDCKINLASKNKLASTPFKGGTLFGGEVCKVIKKRGNKH
modifications: 35S-methionine-labeled
binding [1]: binds
binding [2]: binds

B4: human PHD finger protein 1 (PHF1), N-terminus HA-tagged (other, not shown: small tags and cut ends)
chain: MAQPPRLSRSGASSLWDPASPAPTSGPRPRLWEGQDVLARWTDGLLYLGTIKKVDSAREVCLVQFEDDSQFLVLWKDISPAALPGEELLCCVCRSETVVPGNRLVSCEKCRHAYHQDCHVPRAPAPGEGEGTSWVCRQCVFAIATKRGGALKKGPYARAMLGMKLSLPYGLKGLDWDAGHLSNRQQSYCYCGGPGEWNLKMLQCRSCLQWFHEACTQCLSKPLLYGDRFYEFECCVCRGGPEKVRRLQLRWVDVAHLVLYHLSVCCKKKYFDFDREILPFTSENWDSLLLGELSDTPKGERSSKLLSALNSHKDRFISGREIKKRKCLFGLHARMPPPVEPPTGDGALTSFPSGQGPGGGVSRPLGKRRRPEPEPLRRRQKGKVEELGPPSAVRNQPEPQEQRERAHLQRALQASVSPPSPSPNQSYQGSSGYNFRPTDARCLPSSPIRMFASFHPSASTAGTSGDSGPPDRSPLELHIGFPTDIPKSAPHSMTASSSSVSSPSPGLPRRSAPPSPLCRSLSPGTGGGVRGGVGYLSRGDPVRVLARRVRPDGSVQYLVEWGGGGIF
modifications: 35S-methionine-labeled (in the pull-down)
binding [1]: binds
binding [2]: binds

Second part, the molecule after the results:

binding [1]: binds
binding [2]: binds
Molecule: human transcription factor 4 (TCF4), N-terminus HA-tagged (from UniProt P15884 1-667)

binding [1]: binds
binding [2]: binds
B3: human hepatocyte nuclear factor 3-gamma (HNF3G), N-terminus HA-tagged (other, not shown: small tags and cut ends)
chain: MLGSVKMEAHDLAEWSYYPEAGEVYSPVTPVPTMAPLNSYMTLNPLSSPYPPGGLPASPLPSGPLAPPAPAAPLGPTFPGLGVSGGSSSSGYGAPGPGLVHGKEMPKGYRRPLAHAKPPYSYISLITMAIQQAPGKMLTLSEIYQWIMDLFPYYRENQQRWQNSIRHSLSFNDCFVKVARSPDKPGKGSYWALHPSSGNMFENGCYLRRQKRFKLEEKVKKGGSGAATTTRNGTGSAASTTTPAATVTSPPQPPPPAPEPEAQGGEDVGALDCGSPASSTPYFTGLELPGELKLDAPYNFNHPFSINNLMSEQTPAPPKLDVGFGGYGAEGGEPGVYYQGLYSRSLLNAS
modifications: 35S-methionine-labeled (in the pull-down)
